Measured values taken from US20250313625A1.
Changes are numbered by the printed parent chain. Names may count otherwise. Results are given in words; binding and its absence hold for the method and conditions named. Some entries that bind do so weakly or less than the wild type.

T1: human LAG3 (form used in Octet, Biacore and HDX-MS not given) (human) (UniProt P18627)
T1 sequence (looked up): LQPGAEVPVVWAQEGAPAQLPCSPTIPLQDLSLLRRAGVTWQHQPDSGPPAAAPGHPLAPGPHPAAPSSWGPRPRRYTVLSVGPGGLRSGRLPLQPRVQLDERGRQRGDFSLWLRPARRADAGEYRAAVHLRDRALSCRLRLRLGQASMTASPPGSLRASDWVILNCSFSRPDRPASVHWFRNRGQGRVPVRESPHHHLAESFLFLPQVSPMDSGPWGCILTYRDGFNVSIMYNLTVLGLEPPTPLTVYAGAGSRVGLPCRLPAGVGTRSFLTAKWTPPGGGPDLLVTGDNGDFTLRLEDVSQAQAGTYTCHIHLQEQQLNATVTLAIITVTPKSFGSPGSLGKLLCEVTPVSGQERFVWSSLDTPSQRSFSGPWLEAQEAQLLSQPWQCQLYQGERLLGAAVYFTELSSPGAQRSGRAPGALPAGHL

B1: hu023.04 (antibody, human IgG4, V domains shown)
VH: QVQLVQSGAEVKKPGASVKVSCKASGYTFTESPMNWVRQAPGQGFEWMGIIYTDTGEPTYAEEFKGRVTMTRDTSTSTVYMELSSLRSEDTAVYFCASDYGSILYWYFDVWGQGTLVTVSS
VL: DIQMTQSPSSLSASVGDRVTITCKASQDVSTAVAWYQQKPGKAPKLLIYSASYRYTGVPSRFSGSGSGTDFTLTISSLQPEDFATYYCQQHYNAPPTFGQGTKLEIK
B2: hu021.269 (antibody, V domains shown)
VH: QVQLQESGPGLVKPSQTLSLTCTVSGYSITSGYYWNWIRQHPGNKLEWIGDISYDGGNNYNPSLKNRVTISRDTSKNQFSLKLSSVTAADTAVYYCARDITLTGAMDYWGQGTTVTVSS
VL: EIVLTQSPATLSLSPGERATLSCRASESVDNYGISFMHWYQQKPGQAPRLLIYRASNRESGIPARFSGSGSRTDFTLTISSLEPEDFAVYYCQQSNKDPYTFGQGTKLEIK
B3: hu021.279 (antibody, V domains shown)
VH: B2 VH with V2I, S15G, N36T, G56A, V68I, A89E, V93T
VL: B2 VL with R58L, R72G
B4: hu029.55 (antibody, V domains shown)
VH: QVQLVESGGGLVKPGGSLRLSCAASGFTFSSYAMSWIRQAPGKGLEWVSYVTSGGDYIYYADTVKGRFTISRDDAKNSLYLQMNSLRAEDTAVYYCTRVAYDYEWYFDVWGQGTLVTVSS
VL: B1 VL with L11V, S30T, Y92D, N93S, A94S, P96W
B5: hu029.55.S93Q (antibody, V domains shown)
VH: B4 VH
VL: B1 VL with L11V, S30T, Y92D, N93Q, A94S, P96W
B6: hu029.40 (antibody, V domains shown)
VH: B4 VH with I37V, G44R, S49A, V93M, T114A
VL: B1 VL with L11V, A13T, S30T, L73F, L78V, Y92D, N93S, A94S, P96W
B7: hu029.53 (antibody, V domains shown)
VH: B4 VH with S49A, V93M, T114A
VL: B1 VL with L11V, S30T, Y92D, N93S, A94S, P96W

biological target: T1, human LAG3 (form used in Octet, Biacore and HDX-MS not given) (human); test: SPR (Biacore)

binding, binds:
B1

biological target: T1, human LAG3 (form used in Octet, Biacore and HDX-MS not given) (human); test: BLI (Octet)

binding, binds:
B2
B3
B4
B5
B6
B7
